These results are taken from article PMC4294364.

Chains of the proteins cited; added tags and fusions are not shown. Residues count along the entry.
UniProt Q04206: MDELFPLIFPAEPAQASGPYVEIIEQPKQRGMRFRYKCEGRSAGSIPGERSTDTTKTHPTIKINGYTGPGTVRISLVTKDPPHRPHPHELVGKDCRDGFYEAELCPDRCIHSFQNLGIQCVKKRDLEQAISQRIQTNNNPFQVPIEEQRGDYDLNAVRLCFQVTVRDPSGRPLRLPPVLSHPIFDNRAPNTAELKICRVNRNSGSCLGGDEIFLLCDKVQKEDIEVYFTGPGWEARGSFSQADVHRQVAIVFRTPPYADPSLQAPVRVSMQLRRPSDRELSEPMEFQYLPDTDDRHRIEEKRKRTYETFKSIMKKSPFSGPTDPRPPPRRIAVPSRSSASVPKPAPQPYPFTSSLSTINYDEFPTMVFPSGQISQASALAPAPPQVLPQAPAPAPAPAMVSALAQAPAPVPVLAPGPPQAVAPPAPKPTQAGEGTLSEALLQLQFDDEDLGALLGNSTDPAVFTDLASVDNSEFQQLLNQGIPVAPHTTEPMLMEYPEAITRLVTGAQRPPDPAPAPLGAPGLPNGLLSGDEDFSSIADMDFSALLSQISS
UniProt P19838, residues 1-433: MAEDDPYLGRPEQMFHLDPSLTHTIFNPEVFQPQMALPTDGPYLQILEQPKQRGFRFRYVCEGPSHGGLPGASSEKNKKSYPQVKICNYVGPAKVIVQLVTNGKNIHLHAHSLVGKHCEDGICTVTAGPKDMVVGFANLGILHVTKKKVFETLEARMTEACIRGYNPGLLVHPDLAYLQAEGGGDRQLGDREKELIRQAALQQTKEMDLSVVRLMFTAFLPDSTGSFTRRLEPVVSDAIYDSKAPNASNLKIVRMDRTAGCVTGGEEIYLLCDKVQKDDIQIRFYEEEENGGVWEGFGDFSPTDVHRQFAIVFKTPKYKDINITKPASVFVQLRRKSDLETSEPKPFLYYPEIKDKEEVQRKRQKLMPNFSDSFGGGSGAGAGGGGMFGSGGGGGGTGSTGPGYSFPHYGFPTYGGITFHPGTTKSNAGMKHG

These are yes or no findings as the source states them, for the method shown. In cells and extracts the contact can be indirect. Some results given as binding are weak or reduced against the parent protein; the word gives no strength.

The target of the experiment is p65 (RelA) (human (endogenous in SMMC-7721)) (UniProt Q04206). Nature of the experiment: co-IP; extracts of SMMC-7721 cells; IP with anti-p65 antibody and protein G plus/protein A agarose, 4 °C overnight; washes with 50 mM Tris-HCl pH 7.9, 150 mM NaCl, 1% NP-40; p50 detected by immunoblot; cells preincubated with EriB for 3 h before TNF-α (10 ng/ml) stimulation. In general terms: In western blotting, separated proteins are transferred to a membrane and probed.

In the case of “p50 (NF-κB1 p50 subunit) (from UniProt P19838 1-433)”, the binding entry was “binds”.
